In the supplement of paper PMC10849652:
The list shows a part of the results.

Protein sequences, listed by entry. Tags and fused reporters are not part of them. Lines headed by an entry give the natural chain unless they say otherwise; changes in a name come on top.
UniProt Q5SR56: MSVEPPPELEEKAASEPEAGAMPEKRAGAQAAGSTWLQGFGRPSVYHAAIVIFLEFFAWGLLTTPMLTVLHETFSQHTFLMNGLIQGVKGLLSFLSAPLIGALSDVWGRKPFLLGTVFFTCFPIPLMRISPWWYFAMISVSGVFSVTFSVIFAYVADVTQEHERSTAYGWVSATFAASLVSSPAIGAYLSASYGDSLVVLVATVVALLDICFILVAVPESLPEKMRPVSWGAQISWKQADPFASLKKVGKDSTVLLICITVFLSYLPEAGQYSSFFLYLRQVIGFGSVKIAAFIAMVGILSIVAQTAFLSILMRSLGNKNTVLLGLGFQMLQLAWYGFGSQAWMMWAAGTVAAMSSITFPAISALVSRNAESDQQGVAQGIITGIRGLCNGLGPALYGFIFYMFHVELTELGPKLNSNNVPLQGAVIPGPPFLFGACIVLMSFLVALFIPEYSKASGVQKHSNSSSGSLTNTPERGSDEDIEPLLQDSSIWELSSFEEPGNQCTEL
UniProt O95402: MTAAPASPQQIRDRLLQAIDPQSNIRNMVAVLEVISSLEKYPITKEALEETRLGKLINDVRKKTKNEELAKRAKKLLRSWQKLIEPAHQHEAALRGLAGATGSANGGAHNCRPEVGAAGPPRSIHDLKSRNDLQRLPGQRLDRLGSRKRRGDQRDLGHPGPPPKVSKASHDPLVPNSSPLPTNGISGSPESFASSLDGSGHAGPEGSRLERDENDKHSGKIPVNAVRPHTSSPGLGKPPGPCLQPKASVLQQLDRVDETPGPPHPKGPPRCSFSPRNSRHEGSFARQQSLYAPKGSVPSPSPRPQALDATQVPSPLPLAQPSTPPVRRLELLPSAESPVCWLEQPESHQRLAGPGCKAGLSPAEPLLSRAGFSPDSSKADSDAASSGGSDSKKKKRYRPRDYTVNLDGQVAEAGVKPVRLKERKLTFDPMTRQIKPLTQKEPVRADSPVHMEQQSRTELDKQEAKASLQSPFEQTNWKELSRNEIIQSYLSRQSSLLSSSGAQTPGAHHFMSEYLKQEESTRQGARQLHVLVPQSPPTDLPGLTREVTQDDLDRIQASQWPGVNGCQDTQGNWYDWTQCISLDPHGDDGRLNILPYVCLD
UniProt Q06413, whole entry, looked up: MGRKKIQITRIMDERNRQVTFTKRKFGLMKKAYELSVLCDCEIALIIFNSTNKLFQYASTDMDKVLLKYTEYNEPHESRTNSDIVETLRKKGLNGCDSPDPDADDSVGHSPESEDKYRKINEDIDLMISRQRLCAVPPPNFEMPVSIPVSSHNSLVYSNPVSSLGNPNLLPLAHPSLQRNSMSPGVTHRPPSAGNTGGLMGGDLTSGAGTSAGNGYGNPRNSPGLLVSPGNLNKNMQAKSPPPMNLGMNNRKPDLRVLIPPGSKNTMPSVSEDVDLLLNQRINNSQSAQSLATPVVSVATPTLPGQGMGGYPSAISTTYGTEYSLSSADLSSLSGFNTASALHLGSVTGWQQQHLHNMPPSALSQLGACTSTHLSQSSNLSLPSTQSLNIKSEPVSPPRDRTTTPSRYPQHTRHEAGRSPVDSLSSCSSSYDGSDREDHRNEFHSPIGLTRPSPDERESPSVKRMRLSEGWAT
UniProt P55082: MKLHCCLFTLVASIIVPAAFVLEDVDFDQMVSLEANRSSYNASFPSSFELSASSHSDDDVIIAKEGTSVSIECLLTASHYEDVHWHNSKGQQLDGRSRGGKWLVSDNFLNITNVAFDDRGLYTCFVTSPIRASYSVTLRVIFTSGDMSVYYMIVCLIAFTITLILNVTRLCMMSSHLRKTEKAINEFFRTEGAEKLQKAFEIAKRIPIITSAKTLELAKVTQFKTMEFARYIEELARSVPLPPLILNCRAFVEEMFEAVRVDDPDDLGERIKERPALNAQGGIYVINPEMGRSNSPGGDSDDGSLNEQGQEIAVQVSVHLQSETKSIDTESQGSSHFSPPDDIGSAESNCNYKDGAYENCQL
UniProt Q6UX53: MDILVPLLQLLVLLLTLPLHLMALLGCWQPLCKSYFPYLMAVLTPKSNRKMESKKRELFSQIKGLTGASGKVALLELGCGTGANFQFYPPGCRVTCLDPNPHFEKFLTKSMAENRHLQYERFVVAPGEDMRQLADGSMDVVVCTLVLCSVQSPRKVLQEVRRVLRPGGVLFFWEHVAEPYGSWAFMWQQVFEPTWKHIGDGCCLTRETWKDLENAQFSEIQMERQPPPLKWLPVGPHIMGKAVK
UniProt Q9Y6X3: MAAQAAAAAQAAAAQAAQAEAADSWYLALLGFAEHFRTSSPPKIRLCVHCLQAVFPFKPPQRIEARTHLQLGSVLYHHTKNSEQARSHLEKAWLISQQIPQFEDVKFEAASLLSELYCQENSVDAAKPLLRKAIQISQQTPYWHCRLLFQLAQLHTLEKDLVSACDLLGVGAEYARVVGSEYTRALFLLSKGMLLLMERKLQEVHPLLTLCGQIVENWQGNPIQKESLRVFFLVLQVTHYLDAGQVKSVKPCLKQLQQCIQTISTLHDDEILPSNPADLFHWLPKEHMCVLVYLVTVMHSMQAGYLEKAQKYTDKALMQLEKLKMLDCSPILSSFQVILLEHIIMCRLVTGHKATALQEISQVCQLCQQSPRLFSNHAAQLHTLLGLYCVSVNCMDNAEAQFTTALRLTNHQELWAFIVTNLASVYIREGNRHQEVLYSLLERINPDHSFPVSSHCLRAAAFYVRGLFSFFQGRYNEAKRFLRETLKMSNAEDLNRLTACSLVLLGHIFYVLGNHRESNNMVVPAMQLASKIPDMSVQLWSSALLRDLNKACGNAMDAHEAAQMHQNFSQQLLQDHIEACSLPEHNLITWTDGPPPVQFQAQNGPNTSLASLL
UniProt Q15528: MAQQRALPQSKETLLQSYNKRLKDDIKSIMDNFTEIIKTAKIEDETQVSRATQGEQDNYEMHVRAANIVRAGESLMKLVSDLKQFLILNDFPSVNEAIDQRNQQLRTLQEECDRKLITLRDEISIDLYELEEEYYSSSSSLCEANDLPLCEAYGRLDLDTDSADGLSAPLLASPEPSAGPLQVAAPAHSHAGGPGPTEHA
UniProt A6NJ78: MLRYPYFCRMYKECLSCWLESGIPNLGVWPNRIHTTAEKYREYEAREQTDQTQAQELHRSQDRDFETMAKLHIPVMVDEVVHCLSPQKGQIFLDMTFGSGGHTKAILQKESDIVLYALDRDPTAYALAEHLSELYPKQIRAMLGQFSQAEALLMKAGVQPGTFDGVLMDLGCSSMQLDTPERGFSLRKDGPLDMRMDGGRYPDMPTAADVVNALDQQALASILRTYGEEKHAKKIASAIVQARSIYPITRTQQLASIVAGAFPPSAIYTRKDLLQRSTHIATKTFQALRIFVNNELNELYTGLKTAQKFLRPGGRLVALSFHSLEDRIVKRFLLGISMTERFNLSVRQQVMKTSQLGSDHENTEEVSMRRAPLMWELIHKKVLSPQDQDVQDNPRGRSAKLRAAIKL
UniProt Q5VZF2: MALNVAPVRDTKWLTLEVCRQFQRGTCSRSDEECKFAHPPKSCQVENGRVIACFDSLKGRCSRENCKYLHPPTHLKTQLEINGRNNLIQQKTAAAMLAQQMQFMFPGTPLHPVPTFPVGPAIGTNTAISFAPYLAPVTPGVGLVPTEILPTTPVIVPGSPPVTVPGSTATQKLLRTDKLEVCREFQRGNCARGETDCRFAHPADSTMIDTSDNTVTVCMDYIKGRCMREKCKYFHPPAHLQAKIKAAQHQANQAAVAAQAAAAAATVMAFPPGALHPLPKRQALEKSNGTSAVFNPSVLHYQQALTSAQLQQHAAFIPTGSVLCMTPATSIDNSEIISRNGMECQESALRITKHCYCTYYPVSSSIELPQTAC
UniProt Q6P1Q9: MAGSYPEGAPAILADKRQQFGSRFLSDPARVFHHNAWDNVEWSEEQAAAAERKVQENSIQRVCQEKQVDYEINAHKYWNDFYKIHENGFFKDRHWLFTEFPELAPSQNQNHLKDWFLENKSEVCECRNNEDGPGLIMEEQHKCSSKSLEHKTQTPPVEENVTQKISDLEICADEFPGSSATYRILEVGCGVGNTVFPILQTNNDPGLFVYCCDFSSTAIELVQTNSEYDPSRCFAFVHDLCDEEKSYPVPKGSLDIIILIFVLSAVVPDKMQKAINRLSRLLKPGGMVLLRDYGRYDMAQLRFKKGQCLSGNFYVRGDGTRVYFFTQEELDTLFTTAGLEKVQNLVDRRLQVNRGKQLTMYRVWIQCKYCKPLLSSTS
UniProt Q9NWA0: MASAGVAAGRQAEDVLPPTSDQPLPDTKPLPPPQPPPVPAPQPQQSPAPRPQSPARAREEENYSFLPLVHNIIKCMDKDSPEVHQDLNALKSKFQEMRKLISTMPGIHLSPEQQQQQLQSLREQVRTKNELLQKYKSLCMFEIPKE
UniProt P48740: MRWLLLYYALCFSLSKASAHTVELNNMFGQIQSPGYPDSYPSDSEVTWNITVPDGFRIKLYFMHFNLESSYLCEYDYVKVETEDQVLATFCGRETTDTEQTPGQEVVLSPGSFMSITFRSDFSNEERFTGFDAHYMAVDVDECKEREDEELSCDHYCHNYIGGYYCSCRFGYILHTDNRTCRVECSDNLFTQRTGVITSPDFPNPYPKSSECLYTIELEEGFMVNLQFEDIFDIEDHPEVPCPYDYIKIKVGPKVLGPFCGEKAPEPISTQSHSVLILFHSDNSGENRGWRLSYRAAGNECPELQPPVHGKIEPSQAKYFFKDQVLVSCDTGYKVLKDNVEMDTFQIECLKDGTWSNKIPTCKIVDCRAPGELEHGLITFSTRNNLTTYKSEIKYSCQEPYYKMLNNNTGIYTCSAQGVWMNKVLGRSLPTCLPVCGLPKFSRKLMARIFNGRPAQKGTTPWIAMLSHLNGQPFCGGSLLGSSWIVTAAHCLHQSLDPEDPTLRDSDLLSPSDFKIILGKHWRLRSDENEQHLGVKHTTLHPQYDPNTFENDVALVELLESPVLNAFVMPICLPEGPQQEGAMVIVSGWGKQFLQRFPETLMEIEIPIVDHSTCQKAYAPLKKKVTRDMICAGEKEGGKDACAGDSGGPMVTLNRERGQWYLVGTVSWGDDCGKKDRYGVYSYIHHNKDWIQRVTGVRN
MCTS2P, A0A3B3IRV3, UniProt A0A3B3IRV3, whole entry, looked up: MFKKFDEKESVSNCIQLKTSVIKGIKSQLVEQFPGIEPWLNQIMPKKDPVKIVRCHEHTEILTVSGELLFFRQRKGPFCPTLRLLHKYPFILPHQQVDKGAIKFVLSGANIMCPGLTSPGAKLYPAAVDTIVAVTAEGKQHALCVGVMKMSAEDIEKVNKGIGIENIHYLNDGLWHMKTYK
UniProt Q9NS73: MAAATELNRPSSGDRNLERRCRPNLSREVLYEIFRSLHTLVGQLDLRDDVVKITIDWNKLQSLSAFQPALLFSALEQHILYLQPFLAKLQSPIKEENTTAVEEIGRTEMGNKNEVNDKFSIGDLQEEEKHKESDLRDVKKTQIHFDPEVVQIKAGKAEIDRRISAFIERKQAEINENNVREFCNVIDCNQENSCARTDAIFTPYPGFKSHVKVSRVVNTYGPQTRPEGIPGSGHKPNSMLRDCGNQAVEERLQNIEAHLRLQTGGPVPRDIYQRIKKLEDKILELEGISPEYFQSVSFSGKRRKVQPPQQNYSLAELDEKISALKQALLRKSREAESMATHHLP
UniProt Q9NR56: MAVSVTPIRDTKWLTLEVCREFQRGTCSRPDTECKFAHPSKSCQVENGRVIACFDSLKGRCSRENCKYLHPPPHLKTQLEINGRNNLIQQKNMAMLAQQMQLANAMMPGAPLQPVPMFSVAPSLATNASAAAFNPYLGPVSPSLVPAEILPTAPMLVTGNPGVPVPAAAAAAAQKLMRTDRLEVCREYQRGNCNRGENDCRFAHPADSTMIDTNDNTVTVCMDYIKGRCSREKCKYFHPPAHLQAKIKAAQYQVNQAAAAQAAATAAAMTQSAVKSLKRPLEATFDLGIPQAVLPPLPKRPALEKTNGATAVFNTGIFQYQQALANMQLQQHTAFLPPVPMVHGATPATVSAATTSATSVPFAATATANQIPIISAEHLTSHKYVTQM
UniProt Q6ZNC8: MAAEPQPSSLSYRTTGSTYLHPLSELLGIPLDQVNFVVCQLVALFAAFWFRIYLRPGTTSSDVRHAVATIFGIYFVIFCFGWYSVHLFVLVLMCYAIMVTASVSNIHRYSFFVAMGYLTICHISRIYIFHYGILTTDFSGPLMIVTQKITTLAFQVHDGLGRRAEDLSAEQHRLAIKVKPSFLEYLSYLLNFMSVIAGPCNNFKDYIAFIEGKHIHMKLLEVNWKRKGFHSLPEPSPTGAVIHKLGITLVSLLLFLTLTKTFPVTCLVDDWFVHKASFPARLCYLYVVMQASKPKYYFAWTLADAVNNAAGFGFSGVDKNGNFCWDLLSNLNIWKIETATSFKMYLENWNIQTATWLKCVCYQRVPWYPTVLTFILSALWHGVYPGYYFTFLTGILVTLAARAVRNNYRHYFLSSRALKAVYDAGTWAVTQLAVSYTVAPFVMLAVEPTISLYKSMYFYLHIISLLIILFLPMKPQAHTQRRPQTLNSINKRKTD

Legend:
Test in all cases: log2 fold change, soluble protein after heating vs DMSO (PISA); higher = thermal stabilisation; K562 cells, 10 uM, 30 min; active = over 0.2 and 3.5 SD of the protein, either way, in both replicates (recomputed)
nilotinib = compound: Cc1cn(-c2cc(NC(=O)c3ccc(C)c(Nc4nccc(-c5cccnc5)n4)c3)cc(C(F)(F)F)c2)cn1 [nilotinib]
Method in brief: (§1)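 Quantification of soluble protein used TMTpro 16plex LC-MS/MS, with channel sums equalised. Samples were the supernatant after 21,000xg for 90 min of pooled aliquots from K562 cells (2×10^6 cells/mL) treated with 10 μM compound for 30 min, heated for 3 min over 48°C-58°C, and extracted in PBS with 0.5% NP-40 at 4°C. Values, from duplicates, describe thermal stability against control samples on a log2 fold-change scale.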

[1] = compound: Cc1nc(Nc2n[nH]c3c2CN(C(=O)N[C@H](CN(C)C)c2ccccc2)C3(C)C)c2sccc2n1
Method in brief: as §1

dasatinib = compound: Cc1nc(Nc2ncc(C(=O)Nc3c(C)cccc3Cl)s2)cc(N2CCN(CCO)CC2)n1 [dasatinib]
Method in brief: as §1

[2] = compound: Cc1ncc(-c2ccnc(Nc3ccc(S(C)(=O)=O)cc3)n2)n1C(C)C
Method in brief: as §1

[3] = compound: Cn1cc(-c2ccc3c(c2)CCN3C(=O)Cc2cccc(C(F)(F)F)c2)c2c(N)ncnc21
Method in brief: as §1

tipifarnib = compound: Cn1cncc1[C@@](N)(c1ccc(Cl)cc1)c1ccc2c(c1)c(-c1cccc(Cl)c1)cc(=O)n2C [tipifarnib]
Method in brief: as §1

mubritinib = compound: FC(F)(F)c1ccc(/C=C/c2nc(COc3ccc(CCCCn4ccnn4)cc3)co2)cc1 [mubritinib]
Method in brief: as §1

[4] = compound: NC(=O)Nc1cc(-c2cccc(F)c2)sc1C(=O)N[C@H]1CCCNC1
Method in brief: as §1

[5] = compound: NC(=O)c1cnc(N[C@@H]2CCCC[C@@H]2N)nc1Nc1cccc(-n2nccn2)c1
Method in brief: as §1

[6] = compound: NC1(c2ccc(-c3nc4ccn5c(=O)[nH]nc5c4cc3-c3ccccc3)cc2)CCC1
Method in brief: as §1

[7] = compound: NCC(=O)Nc1ccc(-n2nc(C(F)(F)F)cc2-c2ccc3c(ccc4ccccc43)c2)cc1
Method in brief: as §1

entinostat = compound: Nc1ccccc1NC(=O)c1ccc(CNC(=O)OCc2cccnc2)cc1 [entinostat]
Method in brief: as §1

citarinostat = compound: O=C(CCCCCCNC(=O)c1cnc(N(c2ccccc2)c2ccccc2Cl)nc1)NO [citarinostat]
Method in brief: as §1

silmitasertib = compound: O=C(O)c1ccc2c(c1)nc(Nc1cccc(Cl)c1)c1ccncc12 [silmitasertib]
Method in brief: as §1

[8] = compound: O=C1NC(=O)C(c2cnc3ccccn23)=C1c1cn2c3c(cc(F)cc13)CN(C(=O)N1CCCCC1)CC2
Method in brief: as §1

[9] = compound: c1cc(OCCN2CCCCC2)cc(-c2n[nH]c3ccc(-c4nnc[nH]4)cc23)c1
Method in brief: as §1

[10] = compound: Cc1cccc(CC(=O)N2CCc3c2ccc(-c2cn(C)c4ncnc(N)c24)c3F)n1
Method in brief: as §1

[11] = compound: Cn1cc(-c2ccc3nnc(C(F)(F)c4ccc5ncccc5c4)n3n2)cn1
Method in brief: as §1

vorinostat = compound: O=C(CCCCCCC(=O)Nc1ccccc1)NO [vorinostat]
Method in brief: as §1

bafetinib = compound: Cc1ccc(NC(=O)c2ccc(CN3CC[C@H](N(C)C)C3)c(C(F)(F)F)c2)cc1Nc1nccc(-c2cncnc2)n1 [bafetinib]
Method in brief: as §1

Measured: log2 fold change

MFSD14B (UniProt Q5SR56)
inactive: nilotinib 0.009 | [1] -0.015 | dasatinib 0.027 | [2] -0.042 | [3] 0.003 | tipifarnib 0.148 | mubritinib 0.028 | [4] -0.038 | [5] -0.057 | [6] 0.145 | [7] 0.162 | entinostat 0.098 | citarinostat -0.04 | silmitasertib -0.02 | [8] 0.097 | [9] -0.096

MED26 (UniProt O95402)
inactive: [10] 0.033 | dasatinib 0.046 | [3] 0.032 | [11] -0.258 | tipifarnib 0.062 | [4] 0.141 | [5] 0.285 | [7] 0 | entinostat -0.132 | vorinostat 0.076

MEF2C isoform 2 (UniProt Q06413)
inactive: citarinostat 0.031 | [8] 0.207 | [9] 0.008

MFAP3 (UniProt P55082)
inactive: bafetinib -0.385 | dasatinib -0.083 | [4] 0.043 | [5] -0.04 | [7] -0.09 | entinostat -0.052 | [8] -0.243

METTL7B (UniProt Q6UX53)
inactive: [10] -0.067 | [5] 0.18 | vorinostat -0.205 | [8] 0.096

MED7 (UniProt O43513)
inactive: bafetinib 0.191 | nilotinib -0.029 | [1] -0.041 | dasatinib -0.063 | [2] 0.094 | [3] -0.05 | [11] 0.069 | tipifarnib 0.271 | [4] 0.034 | [5] 0.122 | [7] -0.041 | entinostat -0.16 | [8] -0.085

MAU2 (UniProt Q9Y6X3)
inactive: [10] -0.174 | [11] -0.077 | tipifarnib 0.11 | mubritinib -0.008 | [4] 0.337 | [6] -0.225 | [7] -0.057 | entinostat 0.243 | vorinostat -0.012 | silmitasertib 0.09

MED22 (UniProt Q15528)
inactive: bafetinib -0.137 | nilotinib 0.019 | [1] -0.048 | dasatinib -0.009 | [2] -0.011 | [3] 0.102 | [11] 0.059 | mubritinib -0.043 | [4] 0.042 | [5] 0.029 | [6] 0.064 | [7] 0.023 | entinostat 0.049 | citarinostat -0.243 | silmitasertib -0.01 | [8] -0.074
active: [9] 0.322

METTL15 (UniProt A6NJ78)
inactive: bafetinib -0.165 | dasatinib -0.426 | [5] -0.111 | [8] -0.279

MEGF8 (UniProt Q7Z7M0)
inactive: nilotinib -0.303 | [1] -0.167 | [2] -0.017 | [5] -0.248 | citarinostat 0.034 | [9] 0.103

MBNL2 (UniProt Q5VZF2)
inactive: [10] -0.061 | [11] -0.059 | tipifarnib 0.012 | [5] 0.111 | vorinostat 0.055

METTL2B (UniProt Q6P1Q9)
inactive: [10] -0.074 | dasatinib -0.114 | [3] -0.019 | [11] -0.078 | mubritinib 0.072 | [4] 0.065 | [5] 0.094 | [6] -0.202 | [7] -0.04 | entinostat 0.093 | vorinostat 0.056 | silmitasertib 0.201 | [8] 0.096

MED9 (UniProt Q9NWA0)
inactive: [10] -0.169 | nilotinib 0.043 | [1] 0.066 | dasatinib 0.001 | [2] -0.055 | [11] 0.229 | mubritinib -0.005 | [6] 0.031 | vorinostat -0.235 | citarinostat -0.169 | silmitasertib 0.051 | [9] -0.111

MASP1 isoform 2 (UniProt P48740)
inactive: [10] -0.009 | [3] 0.098 | [4] 0.308 | entinostat -0.222 | vorinostat 0.09

MCTS2P, A0A3B3IRV3
inactive: nilotinib -0.149 | [1] -0.024 | [2] 0.024

Quoted from above (two entries):
MBNL2 (UniProt Q5VZF2)
inactive: [10] -0.061 | [11] -0.059 | tipifarnib 0.012 | [5] 0.111 | vorinostat 0.055

METTL2B (UniProt Q6P1Q9)
inactive: [10] -0.074 | dasatinib -0.114 | [3] -0.019 | [11] -0.078 | mubritinib 0.072 | [4] 0.065 | [5] 0.094 | [6] -0.202 | [7] -0.04 | entinostat 0.093 | vorinostat 0.056 | silmitasertib 0.201 | [8] 0.096

Remaining list, next part.

METTL26 (UniProt Q96S19)
inactive: bafetinib 0.101 | nilotinib -0.103 | [1] 0.034 | [2] 0.07 | tipifarnib -0.06 | mubritinib 0.155 | [6] -0.284 | citarinostat -0.01 | silmitasertib 0.027 | [9] 0.043

MBIP (UniProt Q9NS73)
inactive: bafetinib -0.029 | [11] -0.019 | tipifarnib 0.101 | mubritinib 0.029 | [5] 0.013 | [6] -0.002 | [7] -0.083 | silmitasertib -0.069

MBNL1 isoform 5 (UniProt Q9NR56)
inactive: bafetinib -0.067 | nilotinib -0.034 | [1] -0.005 | [2] 0.03 | [11] -0.137 | mubritinib -0.024 | [4] -0.059 | [6] 0.02 | entinostat 0.02 | citarinostat 0.15 | silmitasertib 0.033 | [8] 0.025 | [9] 0.041

MBOAT1 (UniProt Q6ZNC8)
inactive: bafetinib -0.104 | nilotinib 0.064 | [1] -0.044 | dasatinib -0.101 | [2] -0.165 | [3] 0.022 | [11] -0.047 | tipifarnib -0.026 | [4] -0.113 | [5] -0.186 | [7] -0.238 | entinostat -0.012 | citarinostat -0.041 | [8] -0.082 | [9] -0.125
